The numbers were not newly measured in article PMC10364322, “Evaluation of chronic drug-induced electrophysiological and cytotoxic effects using human-induced pluripotent stem cell-derived cardiomyocytes (hiPSC-CMs)” (Frontiers in Pharmacology, 2023), which cites them from elsewhere.

For this data set the following is noted: free therapeutic Cmax in humans; ref FDA-approved drug packages, PharmaPendium; cited from earlier work.

Consider `O=C(O)COCCN1CCN(C(c2ccccc2)c2ccc(Cl)cc2)CC1` (stereo not shown) [Cetirizine], for which the “Free Cmax” value is 100 nM.
